From article PMC12090600 come the findings set out here.

The experiment has as its target TgCDPK3-GST (Toxoplasma gondii (ME49 strain)). Put plainly: affinity purification with mass spectrometry; purified GST-TgCDPK3 incubated with mouse macrophage cell line lysates; SDS-PAGE, silver stain, mass spectrometry; only the target purified.

No constants are given. Whether binding was seen depends on the method and setting. In cells and extracts the contact can be indirect. A yes stands for co-enrichment or nearness to the bait. Other partners may have been found.

B1: Arginase-1 (endogenous, mouse) (enzyme, UniProt Q61176 1-323)
chain: MSSKPKSLEIIGAPFSKGQPRGGVEKGPAALRKAGLLEKLKETEYDVRDHGDLAFVDVPNDSSFQIVKNPRSVGKANEELAGVVAEVQKNGRVSVVLGGDHSLAVGSISGHARVHPDLCVIWVDAHTDINTPLTTSSGNLHGQPVSFLLKELKGKFPDVPGFSWVTPCISAKDIVYIGLRDVDPGEHYIIKTLGIKYFSMTEVDKLGIGKVMEETFSYLLGRKKRPIHLSFDVDGLDPAFTPATGTPVLGGLSYREGLYITEEIYKTGLLSGLDIMEVNPTLGKTAEEVKSTVNTAVALTLACFGTQREGNHKPGTDYLKPPK
As to B1, the binding result was “binds”.
